Data source: PubChem BioAssay AID1224826 (NIAID, 2016)
Shown is an unselected part of about 17,000 reagents tested. Of all reagents, about 1,110 (6.6%) got an active call. 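Active means lowered or raised reporter signal; replicate intensities are raw and not normalised per plate.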 A number with no mark means an inactive call. A reagent listed more than once was tested more than once; the source does not tell the runs apart. Further read-outs or replicates are left out here. Reagent sequences are not shown.

Purpose: 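Knock-downs that raise or lower Tnf reporter signal after endotoxin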 (primary screen)
Cell system: RAW264.7 G9 macrophages from mouse bearing reporters for p65 (GFP) and the Tnf promoter (mCherry)
Knock-down reagent: siRNA pool against mouse genes, 100 nM
Timing: 16 h of LPS stimulation, after 2 days of siRNA transfection
Treatment: bacterial lipopolysaccharide (Salmonella minnesota R595), 10 ng/ml
Measured: 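Nuclear mCherry signal of the Tnf promoter reporter measured by imaging after background removal, scaled to each plate median and turned into robust z-scores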
Reading the numbers: Tnf reporter robust z-score: higher = stronger Tnf promoter reporter signal after LPS
Hit rule: 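Called active when robust z-score is at most -1.3, matching the median of the Tlr4 knock-down control, or over 3; control wells and wells with under 50 cells never active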
Meaning of the calls: active = Tnf reporter clearly lowered or raised; inactive = no clear change in Tnf reporter

For Smad7, what does the deposit list?
Tnf reporter robust z-score: 2.62; fewer than 50 cells in well: enough cells in well

Which result is listed for Duox2?
Tnf reporter robust z-score: -0.06; fewer than 50 cells in well: enough cells in well

Which result is listed for Slc41a2?
Tnf reporter robust z-score: 0.29; fewer than 50 cells in well: enough cells in well

For Magea8, how do the results read?
Tnf reporter robust z-score: 1.63; fewer than 50 cells in well: enough cells in well

With Srd5a3, what was measured?
Tnf reporter robust z-score: -1.05; fewer than 50 cells in well: enough cells in well

For Or5ae1, how do the results read?
Tnf reporter robust z-score: -0.29; fewer than 50 cells in well: enough cells in well

For Hspa9, what was measured?
Tnf reporter robust z-score: -0.96; fewer than 50 cells in well: enough cells in well

How did the screen score Gabarapl2?
Tnf reporter robust z-score: -0.75; fewer than 50 cells in well: enough cells in well

Individual results from the list.
Result of Magea8 in “Tnf reporter robust z-score”: 1.63
Entry for Smad7 in “Tnf reporter robust z-score”: 2.62

The listing continues.
With Paqr3, how do the results read?
Tnf reporter robust z-score: 1.22; fewer than 50 cells in well: enough cells in well

How did the screen score Trpv4?
Tnf reporter robust z-score: 0.31; fewer than 50 cells in well: enough cells in well

What is on record for Vmn1r6?
Tnf reporter robust z-score: 5.48 (active); fewer than 50 cells in well: enough cells in well

For Nuak2, how do the results read?
Tnf reporter robust z-score: 3.03 (active); fewer than 50 cells in well: enough cells in well

For Nuak2, how do the results read?
fewer than 50 cells in well: fewer than 50 cells per well; well left out of calls

Which result is listed for Rab18?
Tnf reporter robust z-score: 0.11; fewer than 50 cells in well: enough cells in well
